Measurements as given in PubChem BioAssay AID504842 (National Center for Advancing Translational Sciences (NCATS), 2011).
Among all 330,000 compounds or so, about 100 (0.03%) were called active. The shares of active, inactive and inconclusive entries below differ from those in the screen. The call rests on the fitted dose curve; in most records, active means well fitted inhibition curve with a large enough effect; inconclusive means small, poorly fitted or top-dose-only effect; inactive means flat fitted curve, though single readings scatter. Where the call is inconclusive, the potency comes from a doubtful curve fit.

System: Chaperonin Mm-Cpn (Methanococcus maripaludis)
Experiment: Inhibitors of TCP-1 ring complex (TRiC) of Methanococcus maripaludis (MmCpn): qHTS; further: nearly all actives have a fitted effect of over 80% in size;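 on potency: enzyme at 25 nM with ATP substrate at 10 µM during the reaction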
Details: purified Mm-Cpn ATPase, ADP Transcreener TR-FRET; activity, negative = inhibition: at the top concentration
Summary of the method: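 Purified archaeal Mm-CPN (25nM final) preincubated 10 min at 37degC with compound, then 10uM ATP for 30 min at 37degC; ADP measured by HTRF Transcreener TR-FRET; buffer 30 mM TRIS pH 7.4, 100mM KCl, 5mM MgCl2, 1mM DTT.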
On the % scale 0 is the no-effect control and ±100 the full control effect; potency means the concentration at half of the fitted maximal effect.

Compound	activity, negative = inhibition	Potency
Cc1ccccc1-c1cc(C(=O)NCc2cccc(Br)c2)n(CC2CC(c3cccnc3)=NO2)n1 (stereo unspecified)	inactive: -22.3%	
O=C(CSc1nnc(COc2ccccc2)o1)N1CCCC1		inconclusive: 25.1 µM [inhibitor, single point]
O=c1c(Cl)c(N2CCN(S(=O)(=O)c3ccc(F)cc3)CC2)cnn1-c1cccc(Cl)c1		inconclusive: 56.2 µM [inhibitor, partial curve, poor fit]
COc1ccc(N2CCN(C(=O)CN(c3ccc(OC)cc3)S(=O)(=O)c3ccccc3)CC2)cc1	inactive: -0.0565%	
COC(=O)c1c(NC(=O)C2COc3ccccc3O2)sc2c1CCN(Cc1ccccc1)C2 (stereo unspecified)		inconclusive: 70.8 µM [inhibitor, single point]
C[C@@H](Nc1nc(-c2ccccc2)nc2c1oc1ccccc12)C(=O)O		inconclusive: 50.1 µM [inhibitor, single point]
CCOC(=O)C(=O)Nc1ccc(F)cc1	inactive: 0.952%	
CS(=O)(=O)c1ccc(-c2sc3ccccc3c2C#CCCO)cc1		inconclusive: 1120 µM [inhibitor, partial curve, poor fit]
CCOc1ccccc1NC(=O)C(C)SCc1ccccc1 (stereo unspecified)	inactive: 1.06%	
COc1ccc(N=Nc2n(C)c3ccccc3[n+]2C)cc1	inactive: -0.806%	
CCOC(=O)c1cnc2ccc(OCC)cc2c1N1CCN(c2ccccc2)CC1	inactive: -4.44%	
O=C(COc1ccc2ccccc2c1)Nc1ccc(S(=O)(=O)N2CCCCCC2)cc1		inconclusive: 100 µM [inhibitor, single point]
Nc1nnc(CSCc2ccc(Cl)cc2Cl)s1		inconclusive: 25.1 µM [inhibitor, single point]
COc1ccc(NS(=O)(=O)c2cc(NC(=O)[C@@H](NC(=O)c3ccccc3)C(C)C)ccc2C)cc1		inconclusive: 15.8 µM [inhibitor, single point]
CCc1nnc(NC(=O)CCCSc2nc3ccccc3[nH]2)s1		inconclusive: 316 µM [inhibitor, partial curve, poor fit]
COc1ccccc1N1CCN(C(=O)CSc2ncccc2-c2nc3ccccc3[nH]2)CC1		inconclusive: 355 µM [inhibitor, partial curve, poor fit]
COc1ccccc1CC(=O)NC1CC1	inactive: 0.15%	
O=C(CCC1CCCN(C(=O)c2ccc(F)c(F)c2)C1)N1CCN(c2ccccn2)CC1 (stereo unspecified)		inconclusive: 44.7 µM [inhibitor, single point]
Cc1ccc(CN2CCN(CC(=O)N3CCc4ccccc4C3)C2=O)cc1		inconclusive: 50.1 µM [inhibitor, single point]
CC(=O)Oc1ccc(-c2ccc(C(=O)NCCc3ccc(S(N)(=O)=O)cc3)cc2)cc1		inconclusive: 15.8 µM [inhibitor, single point]
CCn1c(C)c(C)c2cc(C(=O)N3CCN(c4ccccc4)CC3)ccc21	inactive: -4.6%	
Cc1cccc(NC(=O)CSc2nnc(NC(=O)C3CCC3)s2)c1		inconclusive: 63.1 µM [inhibitor, single point]
C=CCn1c2ccccc2c(=O)c2cc(C#CC[C@@H](C)O)ccc21		inconclusive: 224 µM [inhibitor, partial curve, poor fit]

Part of the list above in a different format:
Nc1nnc(CSCc2ccc(Cl)cc2Cl)s1
  Potency: inconclusive: 25.1 µM [inhibitor, single point]
COc1ccc(NS(=O)(=O)c2cc(NC(=O)[C@@H](NC(=O)c3ccccc3)C(C)C)ccc2C)cc1
  Potency: inconclusive: 15.8 µM [inhibitor, single point]

Single records (already shown):
CCn1c(C)c(C)c2cc(C(=O)N3CCN(c4ccccc4)CC3)ccc21 in the list: activity, negative = inhibition: inactive: -4.6%
CCOc1ccccc1NC(=O)C(C)SCc1ccccc1 (stereo unspecified) in the list: activity, negative = inhibition: inactive: 1.06%

Further structures follow.

Compound	activity, negative = inhibition	Potency
CCN1Cc2c(/C=C/c3ccccc3)nc3ccc(OC)cc3c2N(c2cccc(Cl)c2)C1		inconclusive: 20 µM [inhibitor, single point]
CCN1CCCC1CNC(=O)c1cc2c(OC)c(OC)c(OC)cc2[nH]1 (stereo unspecified)	inactive: -2.89%	
Cc1ccc(-c2noc(COC(=O)c3ccco3)n2)cc1		inconclusive: 79.4 µM [inhibitor, single point]
COC(=O)COc1ccc2c(-c3ccc(OC)cc3)cc(=O)oc2c1	inactive: -2.48%	
CC(=O)Nc1sc(N/N=C/c2ccc(C)cc2)nc1-c1ccc(C)cc1	inactive: -1.65%	
O=C(O)c1ccc(N2N=C(c3ccccc3)CC2c2ccccc2)cc1 (stereo unspecified)	inactive: -10.4%	
NC(=O)C1Cc2ccccc2CN1S(=O)(=O)c1cccs1 (stereo unspecified)		inconclusive: 20 µM [inhibitor, single point]
CCc1cc(=O)oc2cc(C)cc(OC(=O)c3ccco3)c12		inconclusive: 501 µM [inhibitor, partial curve, poor fit]
CCC1CCCCN1CCCNC(=O)Cn1nc(C)n2nc(-c3ccccc3)cc2c1=O (stereo unspecified)		inconclusive: 112 µM [inhibitor, single point]
COc1cccc(CN(C)C(=O)c2cc(-c3cccs3)nc3ccccc23)c1	inactive: -0.396%	
NC(=O)C1CCCN(C(=O)c2ccc(Cl)c(S(=O)(=O)N3CCc4ccccc43)c2)C1 (stereo unspecified)		inconclusive: 12.6 µM [inhibitor, single point]
Cc1cc(=O)oc2cc(OCCc3ccccc3)ccc12	inactive: 0.834%	
Cc1cccc(C)c1NC(=O)CN1CCN(CCCC(c2ccc(F)cc2)c2ccc(F)cc2)CC1	inactive: -0.558%	
COc1ccccc1NC(=O)Nc1sccc1-c1nc2ccccc2s1		inconclusive: 50.1 µM [inhibitor, single point]
Cc1ccc(S(=O)(=O)N2CCN(CCc3ccncc3)CC2)cc1		inconclusive: 100 µM [inhibitor, single point]
O=C(NCc1cccnc1)NC(=O)c1ccc(Cl)cc1		inconclusive: 63.1 µM [inhibitor, single point]
Cc1cc(C)c2c(NC(=O)CCl)nn(C)c2n1		inconclusive: 100 µM [inhibitor, single point]
O=C(Nc1nc(-c2cccs2)c(-c2cccs2)s1)C1CCCC1	inactive: -2.4%	
Cc1cccc(C(=O)Nc2ccc(Oc3cnccn3)cc2)c1	inactive: -0.493%	
O=C(COc1ccc(Br)cc1Br)NC(=S)Nc1cccc(CO)c1		inconclusive: 100 µM [inhibitor, single point]
O=C(O)Cc1sc(Nc2cccc3ccccc23)nc1-c1ccc(Cl)cc1		inconclusive: 100 µM [inhibitor, single point]
COc1ccc(Cl)cc1NC(=O)Nc1ccccc1SC	inactive: -0.0277%	
COc1ccc(C2=NN(S(C)(=O)=O)C(c3ccc4nccnc4c3)C2)cc1 (stereo unspecified)		inconclusive: 56.2 µM [inhibitor, single point]
